Measurements taken from PubChem BioAssay AID493014 (National Center for Advancing Translational Sciences (NCATS), 2011).
The campaign covered roughly 340,000 compounds. About 170 (0.05%) were called active. Inconclusive results, whose numbers are uncertain, are shown with a selection of clear calls. The call rests on the fitted dose curve; in most records, active means well fitted inhibition curve with a large enough effect in the signal ratio, with a control signal flat (not every such curve was filed as active); inconclusive means small, poorly fitted or top-dose-only effect, or effect the other way, or a change in a side signal; inactive means flat fitted curve, though single readings scatter; the % refers to the signal ratio. Where the call is inconclusive, the potency comes from a doubtful curve fit.

Assay: qHTS Assay to Find Inhibitors of Chronic Active B-Cell Receptor Signaling;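 on activity change, negative = inhibition: plate controls were basal doxycycline-induced cells for no effect and cells given 10 µM MG132 for full effect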
Settings: ABC-DLBCL IkBa-CBG/CBR reporter, luminescence ratio (green luciferase fused to IkBa over red control in TMD8 lymphoma cells), 4 h; activity change, negative = inhibition: at 46.1 µM (top of the series) unless noted
In short: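 TMD8 human ABC-DLBCL cells with doxycycline-inducible IκBα–green luciferase fusion and unfused red luciferase, in 0.5% FBS medium; compounds up to 46 uM, 4 h at 37C. Green/red luminescence ratio, filter-overlap corrected, fitted to concentration-response curves.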
Potency means the concentration at half of the fitted maximal effect.

SMILES	Potency	activity change, negative = inhibition
Cc1ccc(/C=N/NC(=O)c2cccc(NC(=O)c3ccccc3Cl)c2)o1	inconclusive: 35.5 µM [falling, single point]	
COc1cccc(NC(=O)Nc2cccc(C(=O)O)c2)c1		inconclusive: 248%
COc1ccc(NC(=O)c2cc(S(=O)(=O)NCCC3=CCCCC3)ccc2F)cc1		inconclusive: 1.85%
CN(C)CCCN1C(=O)c2cc3ccccc3cc2C1=O		inactive
Cc1ccc(C)c(N2N=C(C(=O)Nc3cccc(S(=O)(=O)N4CCCCC4)c3)CCC2=O)c1		inactive
O=C(COC(=O)Cc1c(Cl)cccc1Cl)NCC1CCCO1 (configuration not stated)		inconclusive: 1.27%
FC(F)(F)c1ccc(-c2noc(-c3ccccc3Br)n2)cc1		inconclusive: 6.97%
CCCc1nc(SCC(=O)Nc2nccs2)c2ccccc2n1	inconclusive: 2 µM [falling, full curve, poor fit]	
Cc1ccc(C(=O)O)cc1NC(=S)NC(=O)c1ccc(-c2ccccc2)cc1		inactive
COc1cc(/C=C/C(=O)OCC(=O)N2CCCC2)ccc1OCC#N		inconclusive: 4.08%
CCN(CC)CCNC(=O)C(=O)Nc1cc2c3c(c1)CCC(=O)N3CCC2		inactive
CN(C)/C=N/C(=S)Nc1ccccc1Cl	inconclusive: 14.1 µM [falling, partial curve, poor fit]	
CCC(=O)c1cc2c(cc1NC(=O)c1ccc(C)cc1)OCCO2		inconclusive: 10.4%
O=[N+]([O-])c1nn(-c2ccc3c(c2)OCCO3)n(O)c1=Nc1ccc(Cl)cc1		inactive
Cc1nc(C)c(CCNC(=O)c2cccc(Cl)c2)s1	inconclusive: 25.9 µM [falling, single point]	
O=C(CSc1nnc(-c2cccnc2)o1)Nc1ccc(Br)cc1		inconclusive: 17.9%
O=C(Nc1ccccc1-c1nc2ccccc2[nH]1)c1ccc(S(=O)(=O)N2CCCCC2)cc1		inactive
O=C(CSc1ccc(-c2ccc(F)cc2)nn1)Nc1ccc2c(c1)OCCO2		inconclusive: 0.108%
C/C(CC(=O)Nc1ccc(Cl)cc1C(F)(F)F)=N\NC(=O)c1ccccn1	inconclusive: 31.6 µM [falling, single point]	
CC(=O)Nc1ccc(S(=O)(=O)NCC(=O)OCC(=O)NC(=O)c2cccn2C)cc1		inconclusive: 0.87%
Cc1noc(/C=C/N(C)C)c1S(=O)(=O)N1CCCC(C(=O)NCCC2=CCCCC2)C1 (configuration not stated)	inconclusive: 6.31 µM [rising, partial curve, poor fit]	

SMILES	Potency	activity change, negative = inhibition
COc1cc(NC(=S)NN2CCN(C)CC2)cc(OC)c1		inconclusive: 10.8%
O=C(NCCN1CCN(C(=O)c2ccc([N+](=O)[O-])cc2)CC1)C(=O)Nc1ccc(F)cc1	inconclusive: 8.91 µM [falling, partial curve]	
CCOC(=O)c1ccc(CN2Cc3ccccc3C2=O)cc1		inactive
COc1ccc(NS(=O)(=O)c2cccc(Cl)c2Cl)cc1S(=O)(=O)N1CCCCC1	inconclusive: 2.59 µM [rising, partial curve]	
N#Cc1nc(-c2cccc3ccccc23)oc1N		inconclusive: 3.73%
O=C(NCCc1ccccc1)C(=O)c1cn(CC(=O)N2CCCC2)c2ccccc12	inconclusive: 3.55 µM [falling, partial curve]	
Nn1c(COc2cccc(Br)c2)nnc1SCC(=O)NCC1CCCO1 (configuration not stated)		inconclusive: 2.53%
O=C(Nc1cc(=O)[nH]c2ncnn12)c1ccco1		inconclusive: 2.25%
NC(=O)c1ccsc1NC(=O)COC(=O)Cc1cccc2ccccc12	inconclusive: 18.4 µM [falling, partial curve]	
C=CCOc1ccccc1CN1CCC(n2nccc2NC(=O)C2CC2)CC1		inactive
CC1CCCCC1NC(=O)C(=O)NCC1CCCO1 (configuration not stated)	inconclusive: 5.8 µM [falling, full curve]	
O=c1c2cn[nH]c2nc(SCc2ccccc2F)n1-c1ccc(Br)cc1		inconclusive: -13%
COc1ccc2c(c1)C(SCC(=O)NCCc1ccc(Cl)cc1)CC(C)(C)O2 (configuration not stated)		inconclusive: -10.9%
Cc1cccc(/C=N/N2CCN(c3ccccc3)CC2)c1		inconclusive: 6.62%
CCCCN(Cc1ccccc1)C(=O)C1CCN(S(=O)(=O)c2c(C)noc2C)CC1		inconclusive: 5.02%
COC(=O)C1CCN(S(=O)(=O)c2ccc(OC)cc2)CC1		inconclusive: 0.37%
CC(C)N(Cc1nc(-c2ccccc2)no1)S(=O)(=O)c1ccccc1	inconclusive: 10.3 µM [rising, single point]	
COc1ccc2nc(C)cc(SCC(=O)N/N=C/c3ccc(O)cc3O)c2c1	inconclusive: 29.1 µM [falling, single point]	
O=C(C[n+]1cc(-c2ccc(Cl)cc2)n2c1CCCCC2)c1ccccc1	inconclusive: 5.62 µM [rising, single point]	
COc1cc2c(cc1OC)CN(C(=O)c1cc(S(=O)(=O)N3CCOCC3)ccc1C)CC2		inactive
CC(=O)OCCNc1cc(SCc2ccco2)c2nonc2c1[N+](=O)[O-]	inconclusive: 29.1 µM [falling, single point]	

Random excerpt: five entries already listed, in no set order.
SMILES	Potency	activity change, negative = inhibition
C=CCOc1ccccc1CN1CCC(n2nccc2NC(=O)C2CC2)CC1		inactive
COc1ccc2c(c1)C(SCC(=O)NCCc1ccc(Cl)cc1)CC(C)(C)O2 (configuration not stated)		inconclusive: -10.9%
CC(=O)OCCNc1cc(SCc2ccco2)c2nonc2c1[N+](=O)[O-]	inconclusive: 29.1 µM [falling, single point]	
COc1cc(NC(=S)NN2CCN(C)CC2)cc(OC)c1		inconclusive: 10.8%
COC(=O)C1CCN(S(=O)(=O)c2ccc(OC)cc2)CC1		inconclusive: 0.37%

(list continues)

SMILES	Potency	activity change, negative = inhibition
COc1ccc(C(C)(C)C)cc1NC(=O)c1[nH]c(C)c(C(C)=O)c1C		inconclusive: 20.1%
CN(C)/C=N/c1cc(=O)n(C)c(=O)n1Cc1ccccc1		inconclusive: -7.2%
COc1ccc(OCC(=O)N/N=C(\C)c2cc3ccccc3o2)cc1		inactive
CCN1CCN(C(=O)c2ccc(CSc3ccc(C)cc3)cc2)CC1	inconclusive: 35.5 µM [falling, single point]	
Cc1cc2ccccc2nc1SCC(=O)N1c2ccccc2CC1C (configuration not stated)		inconclusive: 1.2%
CCOc1ccc(NC(=O)CCN2C(=O)c3ccccc3C2=O)cc1		inconclusive: 9.86%
CCCC1=C(C(=O)OCC)C(c2cccs2)C(C#N)=C(N)O1 (configuration not stated)		inconclusive: -27%
Cc1c(O)ccc(/C=N/Nc2nc(-c3cccnc3)nc3ccccc23)c1O	inconclusive: 35.5 µM [falling, single point]	
CNC(=O)c1[nH]cnc1C(=O)Nc1ccccc1		inconclusive: -2.14%
Cc1ccc(N2CC(=O)N(NC(=O)c3sc4nc(C)cc(C)c4c3N)CC2=O)cc1		inconclusive: 17.6%
O=[N+]([O-])c1ccc(C[n+]2cccc3c4ccccc4ccc32)cc1		inactive
Cn1c(-c2ccccc2)cnc1N		inconclusive: 17.8%
O=c1[nH]c(CSc2cccc[n+]2[O-])nc2ccccc12	inconclusive: 35.5 µM [cytotoxic, single point]	
Cc1c(C(=O)NC2CCC(C)CC2)oc2ccccc12 (configuration not stated)		inactive
C=CCC1NCCc2c(Br)cccc21 (configuration not stated)		inactive
COC(=O)[C@H](CC(C)C)N1Cc2cc(OC)cc(OC)c2-c2ccccc2S1(=O)=O		inconclusive: 3.86%
Cc1cn(C2OC(COC(=O)c3ccccc3)C(OC(=O)c3ccccc3)C2OC(=O)c2ccccc2)c(=O)[nH]c1=O (configuration not stated)	inconclusive: 8.2 µM [falling, partial curve, poor fit]	
CC(=O)c1ccc(N2CCN(C(=O)C3CCN(S(=O)(=O)c4cccs4)CC3)CC2)cc1		inactive
COc1cc(C(=O)OCC(=O)NCCN2C(=O)CSC2=O)ccc1OCc1c(C)noc1C		inconclusive: -7.63%
O=C(OCc1cnc(Cl)s1)c1cccc(Cl)c1Cl		inconclusive: 9.26%
O=C(Nc1cc(Cl)ccc1-n1cncn1)c1ccc([N+](=O)[O-])o1		inconclusive: -5.87%

SMILES	Potency	activity change, negative = inhibition
Cc1cccc(OCC(=O)NCC(=O)n2nc(C)cc2C)c1		inactive
O=c1cc(-c2ccccc2)[nH]n1-c1ccc([N+](=O)[O-])cc1		inconclusive: 17.6%
COc1ccccc1-c1nnc2sc(COc3ccc(Cl)cc3Cl)nn12	inconclusive: 3.55 µM [falling, full curve]	
O=C(NC1CCCC1)C1(c2ccccc2)CCN(S(=O)(=O)c2ccccc2)CC1		inconclusive: -2.5%
Cc1cccn2c(=O)nc(SCC(=O)c3ccc(Cl)cc3)nc12		inconclusive: -27%
NC(=S)Nc1cccc2cn[nH]c12		inactive
CCCC(=O)C1=C(c2cccc(OC)c2)N(C(=O)CCC)n2c(C)nnc2S1	inconclusive: 14.1 µM [falling, partial curve]	
Fc1ccc(SCCc2ccccn2)cc1		inconclusive: 2.82%
COc1ccc(NS(=O)(=O)c2cc3c4c(c2)CCN4C(=O)CC3)cc1OC		inconclusive: -10.4%
CCc1ccc(NC(=S)NC(=O)CC(C)C)cc1		inconclusive: 7.83%
Cc1cc(C)c2sc(N(Cc3cccnc3)C(=O)CCOc3ccccc3)nc2c1		inactive
COc1ccccc1CNC(=O)c1ccoc1C		inactive
O=C(CC(Nc1ccccc1Cl)C(=O)O)c1ccccc1 (configuration not stated)		inconclusive: 1.17%
Cn1c(SCC(=O)Nc2ccccc2)nc(O)cc1=O	inconclusive: 14.1 µM [falling, partial curve, poor fit]	
COc1ccc(C2CC(=O)Oc3cc(C)c(Cl)c(C)c32)cc1 (configuration not stated)		inactive
O=C(NN=C1C2CC3CC(C2)CC1C3)c1ccccc1O		inconclusive: 215%
CCC(C)(C)NC(=O)C(c1ccccn1)N(C(=O)c1csnn1)c1ccc(C)cc1 (configuration not stated)		inconclusive: 2.72%
CCN1CCN(c2ccc(NC(=O)c3ccc4c(c3)OCCO4)cc2C)CC1		inactive
O=C(COC(=O)c1ccc(Oc2ccccc2)cc1)Nc1nnc(-c2ccccc2)o1	inconclusive: 29.1 µM [falling, single point]	
